For this experiment, the target named is T1, TRIM46 (human (endogenous in H358)) (UniProt Q7Z4K8).
T1 sequence: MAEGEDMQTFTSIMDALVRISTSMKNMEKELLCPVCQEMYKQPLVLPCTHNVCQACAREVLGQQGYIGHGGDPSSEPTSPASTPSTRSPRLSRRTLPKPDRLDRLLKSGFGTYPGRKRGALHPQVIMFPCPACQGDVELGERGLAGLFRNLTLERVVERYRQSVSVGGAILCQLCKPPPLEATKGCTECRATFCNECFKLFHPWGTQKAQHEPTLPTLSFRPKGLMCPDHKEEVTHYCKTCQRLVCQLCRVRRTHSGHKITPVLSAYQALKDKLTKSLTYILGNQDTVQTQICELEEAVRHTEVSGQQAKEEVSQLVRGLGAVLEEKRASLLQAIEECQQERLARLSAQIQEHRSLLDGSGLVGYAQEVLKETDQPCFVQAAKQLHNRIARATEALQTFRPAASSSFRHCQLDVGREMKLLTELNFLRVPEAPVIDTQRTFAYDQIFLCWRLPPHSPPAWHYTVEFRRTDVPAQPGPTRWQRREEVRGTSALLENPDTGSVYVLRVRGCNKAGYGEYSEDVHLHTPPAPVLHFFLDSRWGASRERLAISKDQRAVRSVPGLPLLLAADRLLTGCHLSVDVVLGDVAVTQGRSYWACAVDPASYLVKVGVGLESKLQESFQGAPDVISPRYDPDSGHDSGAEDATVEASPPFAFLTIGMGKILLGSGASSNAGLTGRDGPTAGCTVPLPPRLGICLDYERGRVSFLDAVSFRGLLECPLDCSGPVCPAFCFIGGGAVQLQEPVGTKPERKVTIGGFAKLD
The experiment is described as follows: co-IP; H358 cell lysates; anti-TRIM46, anti-PHLPP2 antibody or control IgG for 1 h at 4 °C, then protein A/G beads for 3 h at 4 °C; immunoblot.

No constants are given. Whether binding was seen depends on the method and setting. In cells and extracts the contact can be indirect. Some results given as binding are weak or reduced against the parent protein; the word gives no strength.

B1: pleckstrin homology domain leucine-rich repeat protein phosphatase 2 (protein, UniProt Q6ZVD8 1-1323)
chain: MKRNGSRNCLNRRSRFGSRERDWLREDVKRGCVYLYGADTTTATTTTTTSSSSSSSSSSSDLHLVLCTVETPASEICAGEGRESLYLQLHGDLVRRLEPTERPLQIVYDYLSRLGFDDPVRIQEEATNPDLGCMIRFYGEKPCHMDRLDRILLSGIYNVRKGKTQLHKWAERLVVLCGTCLIVSSVKDCQTGKMHILPLVGGKIEEVKRRQYSLAFSSAGAQAQTYHVSFETLAEYQRWQRQASKVVSQRISTVDLSCYSLEEVPEHLFYSQDITYLNLRHNFMQLERPGGLDTLYKFSQLKGLNLSHNKLGLFPILLCEISTLTELNLSCNGFHDLPSQIGNLLNLQTLCLDGNFLTTLPEELGNLQQLSSLGISFNNFSQIPEVYEKLTMLDRVVMAGNCLEVLNLGVLNRMNHIKHVDLRMNHLKTMVIENLEGNKHITHVDLRDNRLTDLDLSSLCSLEQLHCGRNQLRELTLSGFSLRTLYASSNRLTAVNVYPVPSLLTFLDLSRNLLECVPDWACEAKKIEVLDVSYNLLTEVPVRILSSLSLRKLMLGHNHVQNLPTLVEHIPLEVLDLQHNALTRLPDTLFSKALNLRYLNASANSLESLPSACTGEESLSMLQLLYLTNNLLTDQCIPVLVGHLHLRILHLANNQLQTFPASKLNKLEQLEELNLSGNKLKTIPTTIANCKRLHTLVAHSNNISIFPEILQLPQIQFVDLSCNDLTEILIPEALPATLQDLDLTGNTNLVLEHKTLDIFSHITTLKIDQKPLPTTDSTVTSTFWSHGLAEMAGQRNKLCVSALAMDSFAEGVGAVYGMFDGDRNEELPRLLQCTMADVLLEEVQQSTNDTVFMANTFLVSHRKLGMAGQKLGSSALLCYIRPDTADPASSFSLTVANVGTCQAVLCRGGKPVPLSKVFSLEQDPEEAQRVKDQKAIITEDNKVNGVTCCTRMLGCTYLYPWILPKPHISSTPLTIQDELLILGNKALWEHLSYTEAVNAVRHVQDPLAAAKKLCTLAQSYGCQDNVGAMVVYLNIGEEGCTCEMNGLTLPGPVGFASTTTIKDAPKPATPSSSSGIASEFSSEMSTSEVSSEVGSTASDEHNAGGLDTALLPRPERRCSLHPTPTSGLFQRQPSSATFSSNQSDNGLDSDDDQPVEGVITNGSKVEVEVDIHCCRGRDLENSPPLIESSPTLCSEEHARGSCFGIRRQNSVNSGMLLPMSKDRMELQKSPSTSCLYGKKLSNGSIVPLEDSLNLIEVATEVPKRKTGYFAAPTQMEPEDQFVVPHDLEEEVKEQMKQHQDSRLEPEPHEEDRTEPPEEFDTAL
As for B1, the binding result was “binds”.

Values taken from PMC8967906.
